{"sequences": {"note": "Chains of the proteins cited; added tags and fusions are not shown.", "UniProt O14745": "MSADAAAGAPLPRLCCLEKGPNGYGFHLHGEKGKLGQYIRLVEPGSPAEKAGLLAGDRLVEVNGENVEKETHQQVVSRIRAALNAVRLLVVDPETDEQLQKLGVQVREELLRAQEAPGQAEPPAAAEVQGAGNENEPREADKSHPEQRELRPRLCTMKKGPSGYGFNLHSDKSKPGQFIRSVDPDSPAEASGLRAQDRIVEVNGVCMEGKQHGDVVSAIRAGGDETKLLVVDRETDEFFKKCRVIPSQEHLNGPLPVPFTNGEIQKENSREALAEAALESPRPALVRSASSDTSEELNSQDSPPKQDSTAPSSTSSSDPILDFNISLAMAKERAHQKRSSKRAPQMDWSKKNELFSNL", "UniProt P35579": "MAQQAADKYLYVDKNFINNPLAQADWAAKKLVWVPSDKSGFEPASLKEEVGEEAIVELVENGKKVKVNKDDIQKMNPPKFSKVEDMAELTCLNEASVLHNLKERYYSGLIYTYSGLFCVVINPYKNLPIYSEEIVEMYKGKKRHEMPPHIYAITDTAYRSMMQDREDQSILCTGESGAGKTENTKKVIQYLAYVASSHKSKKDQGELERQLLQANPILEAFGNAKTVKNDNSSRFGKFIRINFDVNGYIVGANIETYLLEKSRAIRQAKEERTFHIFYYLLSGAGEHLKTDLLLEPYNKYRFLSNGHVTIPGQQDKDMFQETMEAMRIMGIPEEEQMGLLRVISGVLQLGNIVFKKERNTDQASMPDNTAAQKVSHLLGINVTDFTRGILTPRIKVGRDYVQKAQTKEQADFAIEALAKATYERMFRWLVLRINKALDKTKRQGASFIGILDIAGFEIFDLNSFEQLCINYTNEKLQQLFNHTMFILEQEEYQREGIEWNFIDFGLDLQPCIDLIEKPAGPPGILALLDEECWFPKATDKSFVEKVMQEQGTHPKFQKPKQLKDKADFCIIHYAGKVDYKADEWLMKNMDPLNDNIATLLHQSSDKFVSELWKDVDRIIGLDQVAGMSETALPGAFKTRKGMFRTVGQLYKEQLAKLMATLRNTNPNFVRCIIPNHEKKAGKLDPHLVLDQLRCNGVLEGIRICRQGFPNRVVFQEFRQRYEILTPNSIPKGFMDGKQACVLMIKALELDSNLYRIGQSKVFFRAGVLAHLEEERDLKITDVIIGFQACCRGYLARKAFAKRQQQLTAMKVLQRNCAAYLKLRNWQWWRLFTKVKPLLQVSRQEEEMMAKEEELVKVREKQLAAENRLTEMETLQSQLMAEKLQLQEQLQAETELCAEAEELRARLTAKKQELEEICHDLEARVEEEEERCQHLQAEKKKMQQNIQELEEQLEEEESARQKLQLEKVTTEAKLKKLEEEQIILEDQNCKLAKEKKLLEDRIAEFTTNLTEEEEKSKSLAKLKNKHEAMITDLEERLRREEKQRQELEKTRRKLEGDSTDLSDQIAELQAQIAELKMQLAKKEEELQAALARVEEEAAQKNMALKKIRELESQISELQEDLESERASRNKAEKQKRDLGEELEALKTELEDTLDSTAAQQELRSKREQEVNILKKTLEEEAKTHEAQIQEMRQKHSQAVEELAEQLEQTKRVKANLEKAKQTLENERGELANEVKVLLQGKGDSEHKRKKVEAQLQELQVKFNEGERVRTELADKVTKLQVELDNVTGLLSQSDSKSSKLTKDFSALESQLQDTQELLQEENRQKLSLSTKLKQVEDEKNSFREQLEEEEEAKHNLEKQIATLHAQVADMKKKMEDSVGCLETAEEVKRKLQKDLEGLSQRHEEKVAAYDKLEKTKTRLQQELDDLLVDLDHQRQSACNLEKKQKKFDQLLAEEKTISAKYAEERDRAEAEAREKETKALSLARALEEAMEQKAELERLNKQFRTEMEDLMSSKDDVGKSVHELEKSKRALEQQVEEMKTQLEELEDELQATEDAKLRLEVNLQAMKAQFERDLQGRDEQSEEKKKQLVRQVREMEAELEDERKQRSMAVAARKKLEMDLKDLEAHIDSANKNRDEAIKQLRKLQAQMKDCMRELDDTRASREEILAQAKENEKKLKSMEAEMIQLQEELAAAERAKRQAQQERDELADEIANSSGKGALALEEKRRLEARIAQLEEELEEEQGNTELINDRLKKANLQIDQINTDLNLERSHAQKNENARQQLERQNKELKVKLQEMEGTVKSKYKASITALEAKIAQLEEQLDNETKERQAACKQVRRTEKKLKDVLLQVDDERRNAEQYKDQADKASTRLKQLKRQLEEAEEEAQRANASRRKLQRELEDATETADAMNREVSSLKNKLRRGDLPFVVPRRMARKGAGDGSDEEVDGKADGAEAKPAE"}, "source": "paper PMC10552901", "molecular_target": "Ezrin‐radixin‐moesin‐binding phosphoprotein 50 (EBP50) (human (endogenous in OVISE cells and OCCC tissue)) (UniProt O14745)", "assay": "affinity purification with mass spectrometry; co-immunoprecipitation with anti-EBP50 antibody crosslinked to Protein G Dynabeads from OVISE cell lysate (IP buffer: 10 mM Tris-HCl pH 7.5, 100 mM NaCl, 1% Nonidet P-40), shotgun proteomics with spectral counting", "note": "No constants are given. Whether binding was seen depends on the method and setting. In cells and extracts the contact can be indirect. Here binding means that the protein was enriched with, or labelled near, the bait; the list need not be complete."}
{"substance": "myosin 9 (MYH9) (from UniProt P35579 1-1960)", "values": [{"measurement": "binding", "value": "binds"}]}
